Assay results taken from publication PMC9508819, “Rbp95 binds to 25S rRNA helix H95 and cooperates with the Npa1 complex during early pre-60S particle maturation”.

T1: Noc2-TAP (S. cerevisiae) (UniProt P39744)
T1 sequence: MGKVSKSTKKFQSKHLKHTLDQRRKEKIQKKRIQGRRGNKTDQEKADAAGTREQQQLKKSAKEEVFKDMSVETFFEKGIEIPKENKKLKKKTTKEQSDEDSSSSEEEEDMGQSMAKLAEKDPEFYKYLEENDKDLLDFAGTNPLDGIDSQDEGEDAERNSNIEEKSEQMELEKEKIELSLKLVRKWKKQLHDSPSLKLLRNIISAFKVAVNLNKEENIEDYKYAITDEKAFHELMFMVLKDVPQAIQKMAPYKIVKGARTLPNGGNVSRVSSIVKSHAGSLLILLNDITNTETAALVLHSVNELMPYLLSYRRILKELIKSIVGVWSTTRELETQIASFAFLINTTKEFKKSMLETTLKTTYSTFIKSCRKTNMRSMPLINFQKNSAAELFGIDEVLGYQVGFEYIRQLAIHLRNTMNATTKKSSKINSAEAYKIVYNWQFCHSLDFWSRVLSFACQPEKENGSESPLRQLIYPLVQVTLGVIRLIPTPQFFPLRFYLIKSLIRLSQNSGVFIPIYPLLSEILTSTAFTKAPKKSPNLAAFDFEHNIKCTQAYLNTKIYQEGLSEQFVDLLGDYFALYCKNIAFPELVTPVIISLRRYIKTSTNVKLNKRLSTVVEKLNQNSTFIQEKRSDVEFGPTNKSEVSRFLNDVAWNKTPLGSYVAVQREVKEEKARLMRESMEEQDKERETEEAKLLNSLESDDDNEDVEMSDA

T2: Rbp95-TAP (S. cerevisiae) (UniProt P25617)
T2 sequence: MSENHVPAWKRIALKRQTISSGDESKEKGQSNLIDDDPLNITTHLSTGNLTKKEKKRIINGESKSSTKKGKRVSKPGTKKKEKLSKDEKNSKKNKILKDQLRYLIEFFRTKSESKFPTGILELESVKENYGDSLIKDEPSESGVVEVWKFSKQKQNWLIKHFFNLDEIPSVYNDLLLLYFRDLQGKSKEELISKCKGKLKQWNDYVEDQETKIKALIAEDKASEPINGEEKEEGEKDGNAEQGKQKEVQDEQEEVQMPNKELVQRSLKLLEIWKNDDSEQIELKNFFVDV

T3: Rbp95-TurboID (S. cerevisiae) (UniProt P25617)
T3 sequence: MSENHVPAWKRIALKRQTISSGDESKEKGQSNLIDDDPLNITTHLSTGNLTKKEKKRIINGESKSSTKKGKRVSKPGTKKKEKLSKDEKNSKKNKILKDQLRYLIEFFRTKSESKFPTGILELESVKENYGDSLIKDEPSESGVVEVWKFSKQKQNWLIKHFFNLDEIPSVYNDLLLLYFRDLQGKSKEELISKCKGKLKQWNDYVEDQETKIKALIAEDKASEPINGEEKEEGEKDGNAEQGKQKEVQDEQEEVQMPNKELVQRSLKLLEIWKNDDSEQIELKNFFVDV

T4: Ssf1-TAP (S. cerevisiae) (UniProt P38789)
T4 sequence: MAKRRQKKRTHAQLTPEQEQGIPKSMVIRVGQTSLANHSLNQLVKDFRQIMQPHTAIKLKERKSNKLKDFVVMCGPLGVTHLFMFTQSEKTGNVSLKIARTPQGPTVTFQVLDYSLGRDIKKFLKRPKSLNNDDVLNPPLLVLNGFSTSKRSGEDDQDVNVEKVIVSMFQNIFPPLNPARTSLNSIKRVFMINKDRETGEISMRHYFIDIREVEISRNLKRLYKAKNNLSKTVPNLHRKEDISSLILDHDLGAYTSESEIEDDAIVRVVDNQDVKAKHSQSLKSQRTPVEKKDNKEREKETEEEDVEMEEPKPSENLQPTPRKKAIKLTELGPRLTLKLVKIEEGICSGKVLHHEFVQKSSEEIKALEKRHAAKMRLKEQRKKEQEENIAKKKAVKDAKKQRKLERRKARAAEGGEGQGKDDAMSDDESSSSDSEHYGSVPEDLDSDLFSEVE

B1: Sda1 (protein, UniProt P53313 1-767)
chain: MGRRSRAAMLPTNIILLQNLVKRDPESYQEEFLQQYAHYESLRDIFMLNGLAGGDSAAATNGLDVGNGSSTMAGTNGTTMSTSTSQLIELVGFVSQVCSCFPRETANFPSELKQLLLEHHKSLPFELKEKILSCLTMLRNKDVITAEELIQSLFPLLVAYSSHGNSLGVNSHAKELRKIIYTNLISLLKSCNTNGKNQKLNKSTQAVCFNLLDQPDSQGIWATKLTRELWRRGIWDDSRTVEIMTQAALHQDVKIVMSGVMFFLDADREREENFEENSEDEDGFDLDALRHKMQVNKKTGRRGKKLENAIKTVKKKKKNGPGAPQGYLNFSAIHLLRDPQGFAEKLFKEHLSGKTKNKFDMEQKISLMQLLSRLIGTHKLIVLGIYTFFLKYLTPKQRDVTRIMSACAQACHDLVPPEVINVMVRKIADEFVSDGVANEVAAAGINTIREICSRAPLAIDEILLQDLVEYKGSKAKGVNMAAKSLIALYRDVAPEMLKKKDRGKNAAMEVQEAKKGGKDSKRPQFGADNSVQGIAGIELLAKWKKEHGEESENEDADANWEVDVDSEEDDVDGEWVTMDSDKEYDVDMEDSDDEKDNAKGKESDSDLELSDDDDEKEVKDEQEDADIDPEAAFREIASTRILTPADFAKLQELRNEESVAKIMGIHKQDKREELVDASTLTGPIKYKQSREERLQKVLEGREGRDKFGSRRGKRDNMRSTTNREKERRKNFVMSIHKRSVRGKQKMSLRDKQKVLRAHITKQKKKGY
B2: Noc1 (protein, UniProt Q12176 1-1025)
chain: MSENNGNPLDLSSLRNKISSKLRDNNSKKAKKTHKGKDVKASSNSKKVNEDIRREALALGASEEDLKLIQGLSDDDDAKSEQEFDAVADEDADDKGFKNDLQNFMKNVGFDQHKLEDVDDDDIEEESTSSKESKIPAQEKEHAQSNIASSTIEKTSQESIDNGSEQEENTVEEANLSSDQEPESESAEKEKKEEKDGGLITQTTIISSDKLIIPYDKPWYEIPLDPQVGQNDDVEELSKEQIEKLFERGKQTLEADNQTYYEEFTKDSSQAKFMSQILSDGTLNDKISAVTLLIQDSPLHNTKSLETLVSYCGKKSRNSALQSLNALKDLFLNGLLPNRKLRYFKNQPGLSMMLNKKTLAIFYFEDYLKKLFFRVLEVLEVLSHDPIIHVRLQILNHVFDLLTNQPEQEFNLLRLGVNKIGDIDSKVSSKASYLLLKLEQAHPNMKSIVIDAIVDIALRPNADYHTTYYSVITLNQTILKRSEDSVANKLVKTYFTLFEKFLINTDKDNTNGVVKSNSKSYEEKRKKNFKKGKHGGKSVKIEKTENEVLDEKNSKLFSALLTGINRAFPFAQIPASVYEVHMETLFKITHSSNFNTSIQALVLINQVTVKAKLNSDRYYRTLYESLFDPRLVNSSKQGIYLNLLYKSLKQDALNVERVEAFVKRILQVCSHWLNVGTITGFFFLLIQLAKTVPQIKNLLTNTPVDYEYESDAEEEQGDKDIKRKEYDGRKRDPKFANAEKSSLWEINNFINHFHPTVKTYANAYVTGETEQIAKPDLGLFTLSHFLDRFVYRSAKQTNTARGTSIMQPLFSGSRVNDSVLVKASDIMHDQGPVNTEDWLTKKVEDIKPEDKFFYQYFTTKKTADGKGKKSNKASNFDSDDEMDENEIWSALVKSRPDVEDDSDDSELDFAEDDFSDSTSDDEPKLDAIDDEDAKSEGSQESDQEEGLDEDIFYSFDGEQDNSDKKRSFAESSEEDESSEEEKEEEENKEVSAKRAKKKQRKNMLKSLPVFASADDYAQYLDQDSD
B3: Utp5 (protein, UniProt Q04177 1-643)
chain: MDSPVLQSAYDPSGQYLCYVTVALDKQRVGVQPTQRATSSGVDTVWNENFLYLEDSKLKVTCLKWVNLASSDTVAIILGMNNGEIWLYSVLANEVTYKFTTGNSYEIKDIDLMGNQLWCIDSSDAFYQFDLLQFKLLQHFRINNCVQLNKLTIVPAGDSVAQLLVASHSISLIDIEEKKVVMTFPGHVSPVSTLQVITNEFFISGAEGDRFLNVYDIHSGMTKCVLVAESDIKELSHSGQADSIAVTTEDGSLEIFVDPLVSSSTKKRGNKSKKSSKKIQIVSKDGRKVPIYNAFINKDLLNVSWLQNATMPYFKNLQWREIPNEYTVEISLNWNNKNKSADRDLHGKDLASATNYVEGNARVTSGDNFKHVDDAIKSWERELTSLEQEQAKPPQANELLTETFGDKLESSTVARISGKKTNLKGSNLKTATTTGTVTVILSQALQSNDHSLLETVLNNRDERVIRDTIFRLKPALAVILLERLAERIARQTHRQGPLNVWVKWCLIIHGGYLVSIPNLMSTLSSLHSTLKRRSDLLPRLLALDARLDCTINKFKTLNYEAGDIHSSEPVVEEDEDDVEYNEELDDAGLIEDGEESYGSEEEEEGDSDNEEEQKHTSSKQDGRLETEQSDGEEEAGYSDVEME

Columns and labels:
Noc2-TAP (S. cerevisiae) = biological target: T1, Noc2-TAP (S. cerevisiae); test: affinity purification with mass spectrometry; tandem-affinity purification from yeast lysate, elution from Calmodulin Sepharose with 0.8% ammonium hydroxide; label-free semi-quantitative LC-MS/MS (LFQ, MaxQuant); for Figure 8A, B from wild-type and Δrbp95 strains
[1] = biological target: T2, Rbp95-TAP (S. cerevisiae); test: as above
[2] = biological target: T3, Rbp95-TurboID (S. cerevisiae); test: proximity labelling; TurboID: C-terminally TurboID-tagged bait from the CUP1 promoter in yeast, 500 uM copper sulfate and biotin for 1 h; biotinylated proteins purified on streptavidin agarose, LC-MS/MS; enrichment against NLS-GFP-TurboID control
Ssf1-TAP (S. cerevisiae) = biological target: T4, Ssf1-TAP (S. cerevisiae); test: affinity purification with mass spectrometry; tandem-affinity purification from yeast lysate, elution from Calmodulin Sepharose with 0.8% ammonium hydroxide; label-free semi-quantitative LC-MS/MS (LFQ, MaxQuant); for Figure 8A, B from wild-type and Δrbp95 strains

| Binder | binding (Noc2-TAP (S. cerevisiae)) | binding [1] | binding [2] | binding (Ssf1-TAP (S. cerevisiae)) |
| --- | --- | --- | --- | --- |
| B1 | binds | binds | binds | – |
| B2 | – | – | – | binds |
| B3 | – | – | – | binds weakly |

These are yes or no findings as the source states them, for the method shown. Binding seen in cells or lysates may run through a third protein. Here binding means that the protein was enriched with, or labelled near, the bait; the list need not be complete.
